PubChem BioAssay AID1259254, NCATS | 2017

Test: 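Gene knock-downs that lead to re-replication, shown by excess G2 DNA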 (primary screen)
Cell system: human HCT116 colorectal cancer cells
Reagents: single siRNA against human genes
Time to read-out: 3 days
Measurement: 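Imaged Hoechst DNA stain sorts each cell into a cycle phase by DNA amount; per plate, G2 fraction set to 0% for non-targeting and 100% for GMNN siRNA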
Direction: G2 robust z-score and G2 cells, % of GMNN control: higher = more G2 cells, more excess DNA replication
Active means: 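An siRNA counts as active if its G2 robust z-score lies at least 5 MADs above the screen median; here such calls match roughly 38% of GMNN control or more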
The whole screen tested about 59,000 reagents; below is a random part of them. Over the whole deposit, about 1,550 (2.6%) got an active call. 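G2 share is only a proxy for re-replication; each gene was hit by three separate siRNAs, and active genes were retested.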 Reagents against one gene are numbered here. Not all columns of the deposit are shown. Not given: the amount of reagent.

ZNF827 #1 — G2 robust z-score: -0.649; G2 cells, % of GMNN control: -1.6; Outcome: inactive
ZNF827 #2 — G2 robust z-score: -0.187; G2 cells, % of GMNN control: 1.65; Outcome: inactive
ZNF827 #3 — G2 robust z-score: 0.507; G2 cells, % of GMNN control: 6.53; Outcome: inactive
PKDCC #1 — G2 robust z-score: -0.62; G2 cells, % of GMNN control: -1.4; Outcome: inactive
PKDCC #2 — G2 robust z-score: 1.41; G2 cells, % of GMNN control: 12.9; Outcome: inactive
PKDCC #3 — G2 robust z-score: -0.718; G2 cells, % of GMNN control: -2.09; Outcome: inactive
INO80 #1 — G2 robust z-score: -0.164; G2 cells, % of GMNN control: 1.82; Outcome: inactive
INO80 #2 — G2 robust z-score: 0.126; G2 cells, % of GMNN control: 3.86; Outcome: inactive
INO80 #3 — G2 robust z-score: -0.877; G2 cells, % of GMNN control: -3.2; Outcome: inactive
BUB1B #1 — G2 robust z-score: 5.8; G2 cells, % of GMNN control: 43.8; Outcome: active
BUB1B #2 — G2 robust z-score: 3.26; G2 cells, % of GMNN control: 25.9; Outcome: inactive
BUB1B #3 — G2 robust z-score: 1.76; G2 cells, % of GMNN control: 15.4; Outcome: inactive

Reagents above called active:
BUB1B #1 — G2 robust z-score: 5.8; G2 cells, % of GMNN control: 43.8; Outcome: active
